Source: patent US11179363B2, “Non-steroidal selective glucocorticoid receptor agonistic modulators (SEGRAMs) and uses thereof” (ASSOCIATION POUR LA RECHERCHE À L'IGBMC (ARI), priority 2017, dated 2021)
At least one compound was matched to its structure with a doubt left.

What was measured:
[1] = tested on: TPA-induced irritant contact dermatitis-like inflammation; experiment: TPA-induced irritant contact dermatitis-like inflammation of mouse ears; format: in vivo, Balb/C mouse
Experimental: Balb/C mouse ears were topically treated with TPA to induce an “irritant contact dermatitis-like inflammation”. Mice were treated for 4 days with TPA, then for 5 extra days (until D9) with either vehicle, TPA alone, TPA and Dex, TPA and CpdX or TPA and CpdX-D3. At D10, RNA transcripts were extracted from mouse ear skin samples and the transcripts of CCL4, COX2, MMP13, IL-1β, IL-6, TNF-α, TSLP, IL-22 and IL-23 were analyzed by q-RT-PCR. Ear skin was harvested, and histological (with H&E staining) and immunohistochemical (with anti-TSLP antibodies) analyses were carried out.

[2] = tested on: HDM-induced asthma-like allergic lung inflammation; experiment: House dust mite (HDM)-induced asthma-like allergic lung inflammation; format: in vivo, mice
Experimental: (§1) Glucocorticoids have been (Pearlman et al., 1997. Ann Allergy Asthma Immunol. 78(4):356-62), and are still, widely used in asthma therapy. In order to investigate the possible CpdX anti-inflammatory activity in vivo, mice were sensitized and challenged with either ovalbumin (OVA) or house dust mite (HDM) to induce an asthma-like allergic lung inflammation.
Mice were intranasally sensitized with 1 μg HDM from D0 to D4, and further intranasally sensitized with 10 μg HDM on D14 and D21. Mice were then subdivided into eight groups, and on D29, D30 and D31, each mouse was again intranasally challenged with […]. The first seven groups received respectively 0.5 mg/kg of body weight of Dex, CpdX, CpdX(eA), CpdX(eB), CpdX-D3, CpdX-D3(eA) or CpdX-D3(eB), while the eighth group served as a control.
On D32, the airway responsiveness was invasively determined using a computer-controlled small animal ventilator (FlexVent® system, SCIREQ Technologies). Mice were anesthetized with xylazine (15 mg/kg, i.p.), followed 15 minutes later by an i.p. injection of pentobarbital sodium (54 mg/kg). An 18-gauge metal needle was then inserted into the trachea, each mouse was connected to the FlexVent® ventilator and quasi-sinusoidally ventilated with a tidal volume of 10 mL/kg at a frequency of 150 breaths/minute and a positive end-expiratory pressure of 2 cm H2O, in order to achieve a mean lung volume close to spontaneous breathing. After baseline measurement, mice were challenged for 10 seconds with a saline aerosol and, at 4.5-minute intervals, with 50 mg/mL methacholine. Airway resistance and elastance were expressed as cmH2O.s/mL and cmH2O/mL respectively.
The lung allergic inflammation was assessed by examination of the bronchoalveolar lavage (BAL) fluid from each of these HDM-challenged mice. The total BAL cells, eosinophils, neutrophils, macrophages and lymphocytes were counted. RNA transcripts were extracted from lung samples. RNA transcripts of IL-1β, IL-6, IL-4, IL-5, IL-13, Eotaxin, CCL4, IL-10 and TNFα were analyzed by q-RT-PCR. Lung tissues were harvested and histological (with H&E staining) and immunohistochemical analyses were also carried out (with eosinophil-specific and neutrophil-specific antibodies).

[3] = tested on: DSS-induced Th17 ulcerative colitis; experiment: Dextran sodium sulfate (DSS)-induced ulcerative colitis; format: in vivo, Balb/C mice
Experimental: To investigate the anti-inflammatory activity of CpdX and CpdX-D3 on a Th17 ulcerative colitis, Balb/C mice were treated with 3% DSS in drinking water for 13 days, with or without an intraperitoneal administration of either Dex, CpdX, CpdX(eA), CpdX(eB), CpdX-D3, CpdX-D3(eA) or CpdX-D3(eB) (1 mg/kg of body weight) on D11, D12 and D13.
At D14, RNA transcripts were extracted from mouse colons. IL-1β, IL-6, IL-17a, IL-17f, TSLP and MMP13 transcripts were analyzed by q-RT-PCR. Colon samples were also harvested for histological analyses (with H&E staining).

[4] = tested on: Aldara-induced psoriasis-like skin inflammation; experiment: Aldara-induced psoriasis-like skin inflammation of mouse ears; format: in vivo, Balb/C mouse
Experimental: Balb/C mouse ears were topically treated with Aldara® to induce a psoriasis-like skin inflammation ([…] et al., 2015. Br J Dermatol. 172(2):345-53). Mice were treated for 9 days with Aldara®, including a co-topical treatment for the last 5 days with either ethanol (Vehicle), Dex, CpdX or CpdX-D3. At D10, RNA transcripts were extracted from mouse ears and IL-17a, IL-17c, IL-17f and IL-22 transcripts were analyzed by q-RT-PCR. Ear skin samples were also harvested for histological analyses (with H&E staining).

[5] = tested on: collagen-induced Th17 rheumatoid arthritis-like inflammation; experiment: Collagen-induced arthritis (CIA); format: in vivo, mice (DBA-1 strain)
Experimental: Mice were treated with collagen to induce a Th17 rheumatoid arthritis-like inflammation as described by Inglis et al. (2007. Arthritis Res Ther. 9(5):R113) and Geboes et al. (2009. Arthritis Rheum. 60(2):390-5).
Male mice (DBA-1 strain) were subcutaneously-injected with 100 μg collagen per mouse on D0. The hind paw thickness at the ankle level was regularly measured with a caliper. When the ankle thickness had reached around 4 mm (T0, i.e., 30 to 50 days after the collagen injection on D0), mice were daily intraperitoneally-injected for 10 days (T0 to T10) with either vehicle (NaCl 0.9%), Dex, CpdX, CpdX(eA), CpdX(eB), CpdX-D3, CpdX-D3(eA) or CpdX-D3(eB) (1 mg/kg body weight diluted in NaCl 0.9%), and the hind paw thickness at the ankle level was daily measured with a caliper. Pictures of the hind paws were taken at days T0 and T10 (before and after the treatment with either Vehicle, Dex, CpdX, CpdX(eA), CpdX(eB), CpdX-D3, CpdX-D3(eA) or CpdX-D3(eB)), in order to assess the course of swelling.
RNA transcripts were extracted from whole hind paws of collagen-untreated and collagen-treated mice at T0 and T10. IL-1β, IL-6, IL-17a, IL-17f and TNFα transcripts were analyzed by q-RT-PCR.

[6] = tested on: OVA-induced asthma-like allergic lung inflammation; experiment: Ovalbumin (OVA)-induced asthma-like allergic lung inflammation; format: in vivo, mice; details: OVA model
Experimental: as §1
Mice were intraperitoneally sensitized with either 50 μg OVA together with alum or with alum alone on D0, D7 and D14. Mice were then subdivided into three groups, and on D19, D20 and D21, they were intranasally (i.n.) challenged with 10 μg OVA. The first and the second group received intranasally 0.5 mg/kg of body weight of Dex or CpdX respectively, while the third group served as a control.
On D22, the lung allergic inflammation was assessed for each mouse by examination of the bronchoalveolar lavage fluid (BAL). The total BAL cells, eosinophils, neutrophils, macrophages and lymphocytes were counted. RNA transcripts were extracted from lung samples and RNA transcripts of IL-1β, IL-6, IL-4, IL-5, IL-10, IL-13, Eotaxin, CCL4 and TNFα were analyzed by q-RT-PCR. Histological (with H&E staining) and immunohistochemical (with eosinophil-specific and neutrophil-specific antibodies) analyses of lung tissues were also carried out.

[7] = tested on: OVA-induced allergic conjunctivitis; experiment: Ovalbumin (OVA)-induced allergic conjunctivitis; format: in vivo, Balb/C mice; details: 0.1% instillation D22 to D24, 20 minutes after the last OVA challenge
Experimental: To investigate the anti-inflammatory effect of CpdX or CpdX-D3 on an allergic conjunctivitis, Balb/C mice were intraperitoneally sensitized with 50 μg OVA with alum on both days D1 and D8, and then challenged from D15 to D21 with 250 μg OVA in 5 μL of sterilized vehicle (0.9% NaCl), which were directly instilled onto the conjunctival sac. From D22 to D24, mice were divided into several groups, and received instillations with either OVA alone, OVA together with 0.1% of either Dex, CpdX, CpdX(eA), CpdX(eB), CpdX-D3, CpdX-D3(eA) or CpdX-D3(eB).
The clinical appearance of mouse eyes was evaluated 20 minutes after the last instillation on D24. Clinical signs (conjunctival hyperemia, lid edema and tearing) were scored to evaluate the occurrence and severity of conjunctivitis as described by Gimenes et al. (2015. Experimental Eye Research 134:24-32). Parameters were graded on a scale ranging from 0 to 3, (0=absence, 1=mild, 2=moderate, and 3=severe symptoms), each animal receiving a total clinical score ranging from 0 to 9. The data were expressed as mean±SEM with at least four mice per treatment.

[8] = tested on: MC 903-induced atopic dermatitis (AD)-like inflammation; experiment: Calcipotriol (MC 903)-induced atopic dermatitis-like inflammation of mouse ears; format: in vivo, Balb/C mouse
Experimental: To investigate the CpdX anti-inflammatory activity in vivo, Balb/C mouse ears were topically treated with calcipotriol (MC 903, a vitamin D3 analogue), in order to induce an atopic dermatitis (AD)-like inflammation (Li et al., 2006. Proc Natl Acad Sci USA. 103(31):11736-41).
Mice were treated for 14 days with MC 903, and then for 8 extra days (until D22) with either MC 903 alone (control), MC 903 and Dex, MC 903 and CpdX, MC 903 and CpdX(eA), MC 903 and CpdX(eB), MC 903 and CpdX-D3, MC 903 and CpdX-D3(eA) and MC 903 and CpdX-D3(eB).
At D23, RNA transcripts were extracted from mouse ear skin samples and the transcripts of 7 cytokines (MMP13, COX2, IL-1β, IL-6, IL-10, IL-13 and TSLP) were analyzed by q-RT-PCR. Ear skin was harvested and histological (with H&E staining) and immunohistochemical (with anti-TSLP antibodies) analyses were carried out.

[9] = i.p. 1 mg/kg on D11, D12, D13, 3% DSS 13 days

In the case of `C[C@@H]1C[C@H]2[C@@H]3CCC4=CC(=O)C=C[C@]4(C)[C@@]3(F)[C@@H](O)C[C@]2(C)[C@@]1(O)C(=O)CO` [Dex, Dexamethasone, reference compound], the “TPA-induced ear skin inflammation, histological analysis” value ([1]; H&E, vs control, data not shown) is reported as “significantly decreased”, the “expression of TSLP in TPA-treated mouse epidermis (immunochemistry)” value ([1]; TSLP-specific antibody, data not shown) is reported as “similarly strongly decreased” and the TPA-induced skin inflammation ([1]; topical 1 nmole/cm^2, 5 days co-treatment with TPA) is reported as “significantly decreased”. For the same compound, the “number of neutrophils and macrophages in BAL” value ([2]; HDM model, 0.5 mg/kg, D32) was “No significant change”, the “total number of BAL cells, eosinophils and lymphocytes” value ([2]; HDM model, 0.5 mg/kg, D32, vs control group) was “significantly decreased” and the “eosinophils in lung (immunohistochemistry, eosinophil-specific antibodies)” value ([2]; HDM model, data not shown) was “decreased”. The “lung expression of IL-10 and TNFα” value ([2]; HDM model, data not shown) was “not affected”, the “neutrophils in lung (immunohistochemistry, neutrophil-specific antibody)” value ([2]; HDM model, data not shown) was “no significant change” and the “peribronchiolar and perivascular inflammatory cell infiltration (histology)” value ([2]; HDM model, lung paraffin sections) was “strongly decreased”. For the same compound, the “lung expression of pro-inflammatory genes (IL-1β, IL-6, IL-4, IL-5, IL-13, Eotaxin, CCL4)” value ([2]; HDM model, q-RT-PCR) was “significantly and similarly decreased”, the “HDM-induced airway hyperresponsiveness (AHR), airway resistance and elastance” value ([2]; methacholine 50 mg/mL, FlexVent) was “similarly reduced” and the “pro-inflammatory genes overexpressed in DSS-induced ulcerative colitis (IL-1β, IL-6, IL-17a, IL-17f, TSLP, MMP13)” value ([3]; colon, q-RT-PCR, D14) was “similarly repressed”. For the same compound, the “colonic villus/crypt structure (histology)” value [3, 9] was “almost reestablished”, the “mucosal and submucosal cell infiltration (histology)” value [3, 9] was “significantly decreased” and the “Aldara-induced psoriasis-like skin inflammation, histological analyses” value ([4]; H&E staining) was “could reduce”. The “induced expression of the Th17 cytokines IL-17a, IL-17c, IL-17f and IL-22” value ([4]; ear extracts, q-RT-PCR, D10) was “similarly reduced”, the “Aldara-induced psoriasis-like skin inflammation” value ([4]; topical 1 nmole/cm^2, last 5 days of 9 days Aldara) was “significantly decreased” and the “hind paw thickness at the ankle level” value ([5]; i.p. 1 mg/kg daily for 10 days (T0 to T10)) was “rapid decrease”. For the same compound, the “RNA transcripts of pro-inflammatory genes in hind paws (IL-1β, IL-6, IL-17a, IL-17f, TNFα)” value ([5]; i.p. 1 mg/kg daily, T10, q-RT-PCR) was “similarly repressed”, the “eosinophils and neutrophils in lung (immunohistochemistry)” value ([6]; data not shown) was “similarly decreased” and the “number of macrophages in BAL” value ([6]; intranasal 0.5 mg/kg, D22) was “unchanged”. For the same compound, the “total number of BAL cells, eosinophils, neutrophils and lymphocytes” value ([6]; intranasal 0.5 mg/kg, D22, vs control group) was “significantly decreased”, the “peribronchiolar and perivascular inflammatory cell infiltration (histology)” value ([6]; lung paraffin sections) was “strongly decreased” and the “lung expression of IL-1β, IL-6, IL-4, IL-5, IL-10, IL-13, Eotaxin, CCL4 and TNFα” value ([6]; q-RT-PCR) was “significantly and similarly decreased”. For the same compound, the “clinical signs of allergic conjunctivitis (conjunctival hyperemia, lid edema and tearing)” value [7] was “considerably reduced”, the “MC 903-induced ear skin inflammation, histological analysis” value ([8]; H&E, vs control) was “decreased” and the “expression of the TSLP lymphokine in MC 903-treated mouse epidermis (immunohistochemistry)” value ([8]; data not shown) was “similarly strongly decreased”. For the same compound, the “MC 903-induced skin inflammation” value ([8]; topical 1 nmole/cm^2, 8 days co-treatment with MC 903) was “significantly decreased”.
